Results deposited as PubChem BioAssay AID1159584 (Peter MacCallum Cancer Centre, 2016)
This is an unselected part of about 18,000 reagents. The record does not give: the amount of reagent, the time to read-out.

Aim: 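Genes whose loss is lethal only together with E-cadherin loss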 (primary screen)
Cells: human MCF10A breast epithelial cells, parental and CDH1-null
Reagents: siRNA against human genes
Measured: 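Cell viability by CellTiter-Glo ATP luminescence, each line scaled to the mean of mock wells across plates, then CDH1-null over parental ratio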
Reading the numbers: CDH1-null / parental viability ratio: higher = CDH1-null cells survive relatively better than parental; CDH1-null viability vs mock: higher = more viable CDH1-null cells; parental viability vs mock: higher = more viable parental cells

Gene	CDH1-null / parental viability ratio	CDH1-null viability vs mock (fraction of mock)	parental viability vs mock (fraction of mock)
ADCY7 (adenylate cyclase 7)	0.75	0.66	0.88
SLC35B2	0.84	0.76	0.9
LRRTM4 (leucine rich repeat transmembrane neuronal 4)	0.8	0.36	0.45
KIF13B (kinesin family member 13B)	1.01	1.01	1
RIN2 (Ras and Rab interactor 2)	1.32	0.99	0.75
CNOT10 (CCR4-NOT transcription complex subunit 10)	1.05	0.89	0.85
TBX18 (T-box transcription factor 18)	0.95	0.74	0.78
GJA8 (gap junction protein alpha 8)	0.88	0.76	0.86
DDX28 (DEAD-box helicase 28)	1.15	0.92	0.8
ZNF157 (zinc finger protein 157)	1.3	0.83	0.64
TCTN2 (tectonic family member 2)	0.88	0.57	0.65
AVEN (apoptosis and caspase activation inhibitor)	1.14	0.99	0.87
SHC4 (SHC adaptor protein 4)	0.93	0.95	1.02
CCDC71L (coiled-coil domain containing 71 like)	0.76	0.62	0.82
GPR85 (G protein-coupled receptor 85)	1.05	0.82	0.78
CLK2 (CDC like kinase 2)	1.16	1.02	0.88
WWC3 (WWC family member 3)	1.01	0.84	0.83
CDKL5 (cyclin dependent kinase like 5)	0.76	0.6	0.79
CRISPLD1 (cysteine rich secretory protein LCCL domain containing 1)	1.04	0.79	0.76
NAA60 (N-alpha-acetyltransferase 60, NatF catalytic subunit)	1.57	0.88	0.56
PRKCZ (protein kinase C zeta)	1.56	1.09	0.7
IRGQ (immunity related GTPase Q)	1.25	1	0.8
GTF2IRD2 (GTF2I repeat domain containing 2)	1.43	0.6	0.42
PPEF2 (protein phosphatase with EF-hand domain 2)	1.67	0.8	0.48
CRTAM (cytotoxic and regulatory T cell molecule)	1.08	1.16	1.07
ACAN (aggrecan)	0.88	0.82	0.93
SGSM2 (small G protein signaling modulator 2)	0.84	0.92	1.09
MAGEC3 (MAGE family member C3)	0.95	0.73	0.77
ANKS6 (ankyrin repeat and sterile alpha motif domain containing 6)	0.94	0.73	0.78
FGF6 (fibroblast growth factor 6)	0.98	0.94	0.96
EPSTI1 (epithelial stromal interaction 1)	1	0.54	0.54
PLA2G6 (phospholipase A2 group VI)	1.39	1.42	1.02
SMPDL3A (sphingomyelin phosphodiesterase acid like 3A)	1.02	0.92	0.9
SLC22A2	0.79	0.68	0.86
ADGRE5 (adhesion G protein-coupled receptor E5)	0.89	0.68	0.76
SDF2 (stromal cell derived factor 2)	0.98	0.5	0.51
DLD (dihydrolipoamide dehydrogenase)	0.86	0.74	0.86
GBP5 (guanylate binding protein 5)	1.56	0.78	0.5
SERTM1 (serine rich and transmembrane domain containing 1)	1.1	0.89	0.81
COL8A2 (collagen type VIII alpha 2 chain)	1.18	0.73	0.62
EXOSC3 (exosome component 3)	1.01	0.71	0.7
EMC7 (ER membrane protein complex subunit 7)	0.76	0.64	0.84
GRXCR1 (glutaredoxin and cysteine rich domain containing 1)	0.94	0.9	0.96
DAD1 (defender against cell death 1)	1.1	0.98	0.89
ETV6 (ETS variant transcription factor 6)	0.86	0.96	1.12
PCDHGB1 (protocadherin gamma subfamily B, 1)	1.3	1.14	0.88
NADSYN1 (NAD synthetase 1)	1.02	0.98	0.96
CYP3A5 (cytochrome P450 family 3 subfamily A member 5)	1.35	0.96	0.71
SLC67A2	0.97	0.7	0.72
SV2C (synaptic vesicle glycoprotein 2C)	1.14	0.82	0.72
GSTA2 (glutathione S-transferase alpha 2)	1.34	0.9	0.67
CUX2 (cut like homeobox 2)	0.89	0.31	0.35
CEACAM21 (CEA cell adhesion molecule 21)	0.82	0.8	0.97
LMOD1 (leiomodin 1)	1.27	0.94	0.74
OSGEPL1 (O-sialoglycoprotein endopeptidase like 1)	1.02	0.82	0.8
ENHO (energy homeostasis associated)	1.09	0.87	0.8
OFD1 (OFD1 centriole and centriolar satellite protein)	1.02	1.1	1.08
SNX22 (sorting nexin 22)	1.18	0.86	0.73

Sorted by “CDH1-null viability vs mock (fraction of mock)” (lowest first): some entries from above
Gene	CDH1-null / parental viability ratio	CDH1-null viability vs mock (fraction of mock)	parental viability vs mock (fraction of mock)
SDF2 (stromal cell derived factor 2)	0.98	0.5	0.51
EMC7 (ER membrane protein complex subunit 7)	0.76	0.64	0.84
ADGRE5 (adhesion G protein-coupled receptor E5)	0.89	0.68	0.76
EXOSC3 (exosome component 3)	1.01	0.71	0.7
COL8A2 (collagen type VIII alpha 2 chain)	1.18	0.73	0.62
DLD (dihydrolipoamide dehydrogenase)	0.86	0.74	0.86
GBP5 (guanylate binding protein 5)	1.56	0.78	0.5
SERTM1 (serine rich and transmembrane domain containing 1)	1.1	0.89	0.81
GRXCR1 (glutaredoxin and cysteine rich domain containing 1)	0.94	0.9	0.96
DAD1 (defender against cell death 1)	1.1	0.98	0.89

Next records follow:
Gene	CDH1-null / parental viability ratio	CDH1-null viability vs mock (fraction of mock)	parental viability vs mock (fraction of mock)
NID1 (nidogen 1)	1.17	0.82	0.7
EME1 (essential meiotic structure-specific endonuclease 1)	1.22	0.55	0.45
TMEM158 (transmembrane protein 158)	1.28	0.78	0.61
ZNF484 (zinc finger protein 484)	1.14	0.5	0.44
FRRS1L (ferric chelate reductase 1 like)	1.01	0.77	0.76
ARHGEF11 (Rho guanine nucleotide exchange factor 11)	0.83	0.73	0.88
TLR7 (toll like receptor 7)	0.84	0.74	0.88
LIM2 (lens intrinsic membrane protein 2)	1.21	0.86	0.71
SPON2 (spondin 2)	0.75	0.4	0.53
STRBP (spermatid perinuclear RNA binding protein)	1.17	0.96	0.82
JCHAIN (joining chain of multimeric IgA and IgM)	0.92	0.55	0.6
CBR3 (carbonyl reductase 3)	0.86	0.77	0.9
EPPIN (epididymal peptidase inhibitor)	1.13	0.95	0.84
PRR23B (proline rich 23B)	1.04	0.87	0.84
DESI2 (desumoylating isopeptidase 2)	1.06	0.84	0.79
FNBP1L (formin binding protein 1 like)	1.49	0.82	0.55
SPAG4 (sperm associated antigen 4)	1.43	1.34	0.94
NHLH1 (nescient helix-loop-helix 1)	1.21	0.63	0.52
FEZF2 (FEZ family zinc finger 2)	0.98	0.9	0.92
BIVM (basic, immunoglobulin-like variable motif containing)	1.11	0.81	0.73
SPX (spexin hormone)	1.09	1.02	0.94
OR2H2 (olfactory receptor family 2 subfamily H member 2)	0.86	0.88	1.02
SPP1 (secreted phosphoprotein 1)	0.87	0.7	0.8
SLC6A19	1.01	1.04	1.03
METTL3	1.07	0.62	0.58
TCF12 (transcription factor 12)	0.9	0.74	0.82
ZNF678 (zinc finger protein 678)	1.07	1.13	1.06
VILL (villin like)	1.4	0.84	0.6
CAVIN1 (caveolae associated protein 1)	1.12	0.82	0.73
